Data as given in paper PMC4694975.
Results are given in words; binding and its absence hold for the method and conditions named. Binding seen in cells or lysates may run through a third protein. Some results given as binding are weak or reduced against the parent protein; the word gives no strength.

Amino acid sequences for entries named in this document (tags omitted).
UniProt Q14247: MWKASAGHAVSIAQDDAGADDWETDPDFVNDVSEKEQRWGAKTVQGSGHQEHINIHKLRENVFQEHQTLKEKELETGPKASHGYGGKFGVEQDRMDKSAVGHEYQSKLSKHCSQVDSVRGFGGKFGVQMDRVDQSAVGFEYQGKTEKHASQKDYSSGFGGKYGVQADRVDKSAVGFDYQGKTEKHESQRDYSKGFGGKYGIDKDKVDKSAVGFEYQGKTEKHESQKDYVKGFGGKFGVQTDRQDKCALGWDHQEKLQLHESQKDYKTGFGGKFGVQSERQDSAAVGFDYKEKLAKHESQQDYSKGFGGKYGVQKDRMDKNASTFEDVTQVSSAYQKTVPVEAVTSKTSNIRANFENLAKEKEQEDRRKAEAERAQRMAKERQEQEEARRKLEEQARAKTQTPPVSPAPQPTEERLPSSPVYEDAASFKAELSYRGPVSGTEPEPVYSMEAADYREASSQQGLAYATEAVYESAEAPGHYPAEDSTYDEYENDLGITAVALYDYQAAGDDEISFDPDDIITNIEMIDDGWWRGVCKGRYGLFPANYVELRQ
UniProt Q15746: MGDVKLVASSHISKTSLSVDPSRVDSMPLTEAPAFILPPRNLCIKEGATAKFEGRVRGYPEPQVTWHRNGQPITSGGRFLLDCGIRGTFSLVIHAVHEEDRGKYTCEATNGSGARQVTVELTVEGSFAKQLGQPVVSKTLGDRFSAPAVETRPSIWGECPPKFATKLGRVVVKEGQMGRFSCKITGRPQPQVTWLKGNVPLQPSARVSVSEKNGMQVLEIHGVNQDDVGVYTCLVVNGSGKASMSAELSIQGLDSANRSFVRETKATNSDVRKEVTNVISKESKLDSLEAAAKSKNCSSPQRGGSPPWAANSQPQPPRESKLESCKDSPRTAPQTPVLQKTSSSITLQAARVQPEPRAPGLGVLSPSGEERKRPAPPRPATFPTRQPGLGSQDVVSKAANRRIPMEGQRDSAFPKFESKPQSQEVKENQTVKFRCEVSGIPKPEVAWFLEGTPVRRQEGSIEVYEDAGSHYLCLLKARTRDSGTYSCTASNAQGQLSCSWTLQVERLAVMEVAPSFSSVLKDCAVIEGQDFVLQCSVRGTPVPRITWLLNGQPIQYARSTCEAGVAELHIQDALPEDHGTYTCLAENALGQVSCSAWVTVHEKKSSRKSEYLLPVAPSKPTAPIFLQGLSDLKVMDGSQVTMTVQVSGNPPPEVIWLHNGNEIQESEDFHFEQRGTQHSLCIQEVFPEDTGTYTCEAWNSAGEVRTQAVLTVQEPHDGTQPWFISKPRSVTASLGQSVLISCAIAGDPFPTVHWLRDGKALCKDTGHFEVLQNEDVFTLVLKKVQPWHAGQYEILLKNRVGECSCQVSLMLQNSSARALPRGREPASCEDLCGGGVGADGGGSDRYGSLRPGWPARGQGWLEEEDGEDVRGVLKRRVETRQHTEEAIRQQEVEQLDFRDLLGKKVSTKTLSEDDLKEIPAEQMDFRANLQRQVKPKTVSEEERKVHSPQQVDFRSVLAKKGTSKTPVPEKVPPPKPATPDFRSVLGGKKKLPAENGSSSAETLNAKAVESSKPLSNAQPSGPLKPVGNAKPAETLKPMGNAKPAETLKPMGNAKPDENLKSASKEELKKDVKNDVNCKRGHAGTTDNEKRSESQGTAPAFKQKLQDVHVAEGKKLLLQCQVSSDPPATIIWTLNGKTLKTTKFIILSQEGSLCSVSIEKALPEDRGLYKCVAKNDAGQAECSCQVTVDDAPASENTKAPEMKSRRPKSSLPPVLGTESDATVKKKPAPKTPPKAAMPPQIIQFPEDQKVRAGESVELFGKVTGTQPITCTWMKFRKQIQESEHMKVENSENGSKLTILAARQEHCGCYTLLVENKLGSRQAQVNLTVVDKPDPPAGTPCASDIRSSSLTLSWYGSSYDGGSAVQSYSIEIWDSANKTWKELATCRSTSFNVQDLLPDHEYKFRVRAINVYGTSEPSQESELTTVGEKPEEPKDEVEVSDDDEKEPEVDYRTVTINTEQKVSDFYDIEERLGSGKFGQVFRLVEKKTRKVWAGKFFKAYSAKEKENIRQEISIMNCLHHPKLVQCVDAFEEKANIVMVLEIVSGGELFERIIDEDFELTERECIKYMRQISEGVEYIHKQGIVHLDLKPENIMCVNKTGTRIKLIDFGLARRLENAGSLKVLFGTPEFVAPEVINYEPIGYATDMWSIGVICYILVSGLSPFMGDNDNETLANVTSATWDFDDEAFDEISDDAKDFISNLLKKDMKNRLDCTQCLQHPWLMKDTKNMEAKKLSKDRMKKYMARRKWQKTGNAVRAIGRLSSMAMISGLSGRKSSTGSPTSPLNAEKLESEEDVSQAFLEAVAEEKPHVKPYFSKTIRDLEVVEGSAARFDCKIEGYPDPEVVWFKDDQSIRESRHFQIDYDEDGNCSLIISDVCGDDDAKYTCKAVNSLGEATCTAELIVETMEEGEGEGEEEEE

Biological target: Cortactin (human (endogenous in MDA-MB-231)) (UniProt Q14247)
Assay: proximity ligation; in situ PLA (Duolink) in MDA-MB-231 cells transfected with MYLK-HA, seeded on gelatin coated coverslips, fixed; primary antibodies as for immunofluorescence, anti-rabbit plus and anti-mouse minus PLA probes

Question: With “HA-tagged MYLK (myosin light chain kinase) (from UniProt Q15746 1-1914) (enzyme)” as the substance, how does the binding read?
Answer: binds
